Assay: Penetration assay with finite dosage using vertical Franz diffusion cells
Format: in vitro ADME, pig
Details: finite dose 20 µL, 24 h exposure

| Compound | Mass balance (%) |
| --- | --- |
| Cn1c(=O)c2c(ncn2C)n(C)c1=O [Caffeine, caffeine] | 98.92 ± 1.32% |
| O=C(O)Cc1ccccc1Nc1c(Cl)cccc1Cl [Diclofenac sodium] | 103.80 ± 9.21% |
| CC(C)Cc1ccc(C(C)C(=O)O)cc1 (stereo not drawn) [Ibuprofen, ibuprofen] | 92.81 ± 13.97% |
